How the values were obtained:
[1] = cited from earlier work
BEAS-2B cells [2] = tested on: BEAS-2B cells
BEAS-2B cells [3] = conditions: gene NM_004265; BEAS-2B treated with amiodarone

SMILES: CCCCc1oc2ccccc2c1C(=O)c1cc(I)c(OCCN(CC)CC)c(I)c1 [amiodarone]
- patients with pulmonary toxicity ([1]; among the patients exhibiting side effects): 5-15%
- patients with rash or other skin disorders changing skin color into blue gray, ecchymosis, alopecia, and hypotension ([1]; patients treated with amiodarone): less than 1%
- Ratio of intermediate value, FADS2 (BEAS-2B cells [2]; gene Fatty acid desaturase 2, NM_004265, up-regulated, amiodarone at IC20, 48 hours): 2.032
- cDNA microarray (Cy3/Cy5 ratio), Fatty acid desaturase 2 (BEAS-2B cells [2]; gene NM_004265, Table 5, BEAS-2B treated with amiodarone): 3.498
- Real time PCR (relative ratio), Fatty acid desaturase 2 (BEAS-2B cells [3]): 2.0322
